The values that follow come from doi:10.1101/2022.02.27.481963.

This assay deals with ATP pyrophosphatase (ATPPase) subunit of Methanocaldococcus jannaschii GMP synthetase (Methanocaldococcus jannaschii) (UniProt Q58531). Put plainly: cross-linking.

These are yes or no findings as the source states them, for the method shown. A result given as binding can be weak or reduced; the word gives no strength.

B1: Glutamine amidotransferase (GATase) subunit of Methanocaldococcus jannaschii GMP synthetase (enzyme, UniProt Q58970 1-188)
chain: MIVILDNGGQYVHRIHRSLKYIGVSSKIVPNTTPLEEIESNKEVKGIILSGGPDIEKAKNCIDIALNAKLPILGICLGHQLIALAYGGEVGRAEAEEYALTKVYVDKENDLFKNVPREFNAWASHKDEVKKVPEGFEILAHSDICQVEAMKHKTKPIYGVQFHPEVAHTEYGNEILKNFCKVCGYKFE
Turning to B1, the binding result is given as “binds”.
